PubChem BioAssay AID540276 (National Center for Advancing Translational Sciences (NCATS), 2011)
Among all 300,000 compounds or so, about 5,400 (1.8%) were called active. The shares of active, inactive and inconclusive entries below differ from those in the screen. Calls follow the shape of the full dose curve; tested in HEK293 cells. Potencies of inconclusive entries are doubtful fits and often do not repeat.

Assay: qHTS for inhibitors of binding or entry into cells for Marburg Virus
Details: Marburg virus pseudotyped entry inhibition, cell reporter; activity change, negative = inhibition: at 37.8 µM (top of the series) unless noted
% is scaled to controls: 0 for no effect and ±100 for the full control effect; potency is read from the fitted curve at half-maximal effect.

SMILES	Potency	activity change, negative = inhibition
CN1CCN(c2ccc(S(=O)(=O)N3CCCCC3)cc2NC(=O)Cc2c(F)cccc2Cl)CC1	inconclusive: 22.4 µM [inhibitor, single point]	–
Cc1nc2c3ccccc3nc(NNC(=O)CCC(=O)N3CCN(c4cccc(C(F)(F)F)c4)CC3)n2n1	inconclusive: 35.5 µM [inhibitor, partial curve, poor fit]	–
O=C(N/N=C/c1ccc(OCc2ccccc2)cc1)c1ccco1	inconclusive: 11.2 µM [activator, single point]	–
O=C(CN(Cc1cccs1)C(=O)CSc1nnc(COc2ccccc2)o1)NC1CCCCC1	inconclusive: 14.1 µM [inhibitor, single point]	–
CCOC(=O)C1(CC)CC(CSc2nc3ccccc3[nH]2)OC1=O (stereo not given)	inconclusive: 5.62 µM [inhibitor, full curve, poor fit]	–
CC1CCCN(c2nc3c(c(=O)n(C)c(=O)n3C)n2CCSc2nc3ccccc3s2)C1 (stereo not given)	inconclusive: 29.1 µM [inhibitor, single point]	–
CCOC(=O)C1(CCOc2ccccc2)CCN(Cc2ccncc2)CC1	inconclusive: 35.5 µM [inhibitor, partial curve, poor fit]	–
CCCOc1ccc(-c2c(C(=O)N/N=C/c3cccs3)nnn2-c2nonc2N)cc1	inconclusive: 10 µM [inhibitor, partial curve, poor fit]	–
CCOC(=O)N1CCN(C(=S)Nc2cc(S(=O)(=O)N3CCOCC3)ccc2Cl)CC1	inconclusive: 1.41 µM [inhibitor, partial curve, poor fit]	–
CCOC(=O)CC1COCCN1C(=O)CCc1nnc(-c2ccsc2)o1 (stereo not given)	inconclusive: 0.562 µM [activator, full curve, poor fit]	–
O=C(CSc1nc2ccccc2c(=O)n1CC1CCCO1)Nc1ccc(F)cc1 (stereo not given)	inconclusive: 17.8 µM [inhibitor, single point]	–
CN(C)/C=C/C(=O)c1ccc(Cl)cc1	–	inactive: 29%
CN(C)C(=O)CSc1nc2ccccc2c(=O)[nH]1	–	inactive: 12.4% [at 46.1 µM]
N#CCN(C(=O)COC(=O)CCCNC(=O)c1ccc(Cl)cc1)c1ccccc1	inconclusive: 0.631 µM [inhibitor, full curve, poor fit]	–
CCCCCCCC(=O)N/N=C(\C)c1ccc(O)cc1O	–	inactive: 2.6%
CC(=O)c1ccc(N2CCN(C(=O)c3ccc4c(=O)n(-c5ccccc5)c(=O)[nH]c4c3)CC2)cc1	inactive	–
CCC(C)/C(C)=N/NC(=O)c1ccccc1OCCOc1ccccc1 (stereo not given)	inconclusive: 12.6 µM [activator, partial curve]	–
COc1cc(C)ccc1OCCSc1nc2ccc(NC(=O)c3cccs3)cc2s1	inconclusive: 17.8 µM [inhibitor, single point]	–
COC(=O)c1cccc(Cn2nnc3ccccc3c2=O)c1	–	inactive: 2.8% [at 46.1 µM]
COc1ccc(CN(C(=O)c2ccco2)c2ccc(C)c(C)c2)cc1	inconclusive: 7.08 µM [inhibitor, full curve, poor fit]	–
COC1=C(Nc2ccccc2OC)C(=O)c2ccccc2C1=O	–	inactive: 6.16% [at 46.1 µM]
O=C(c1cnn(-c2ccc(Cl)cc2)c1)c1ccccc1O	active: 3.55 µM	–

SMILES	Potency	activity change, negative = inhibition
Cc1noc(C)c1COc1ccc(C(=O)Nc2ncccc2O)cc1	–	inactive: 0.752%
COC(=O)N/N=C\c1c(C)[nH]n(-c2ccccc2)c1=O	inconclusive: 5.62 µM [inhibitor, single point]	–
Clc1cc(CSc2ccccc2)nc(-c2ccccc2)n1	–	inactive: -2.81%
COc1cc(-c2nnc(-c3cccs3)o2)cc(OC)c1OC	–	inactive: -23.9%
Cc1ccc(-c2nc3cc(N)ccc3o2)c(C)c1	inconclusive: 0.112 µM [activator, full curve, poor fit]	–
Cc1c(NC(=O)OC(C)C)sc(=S)n1C	–	inactive: 2.17%
Cc1oc(-c2ccc(Cl)cc2)nc1CN1CCCC(C(=O)NCCCN2CCOCC2)C1 (stereo not given)	inconclusive: 10 µM [inhibitor, partial curve, poor fit]	–
COc1cccc(CNC(=O)C2CCN(C(=O)c3sccc3-n3cccc3)CC2)c1	–	inactive: -16.8% [at 46.1 µM]
Fc1ccc(C2=NNC(=NCc3ccccc3)SC2)cc1F	inconclusive: 35.5 µM [inhibitor, single point]	–
Cc1csc(NC(=O)C2CCN(S(=O)(=O)c3ccccc3F)CC2)n1	inconclusive: 2.24 µM [inhibitor, partial curve, poor fit]	–
COc1ccccc1N1CCN(CC(O)COCCOc2ccc(Br)cc2)CC1 (stereo not given)	inconclusive: 35.5 µM [inhibitor, partial curve, poor fit]	–
CCOc1cc(N2CCOCC2)c(OCC)cc1NC(=O)c1cc(C)nc2ccccc12	inconclusive: 7.08 µM [inhibitor, full curve]	–
Cc1ccc(C(=O)NCc2ccc(N3CCN(C(=O)OC(C)(C)C)CC3)cc2)cc1	–	inactive: 1.51%
COCCCNC(=O)c1sc2nc(C)c(C(=O)Nc3ccc(C)cc3C)c(-c3ccc(Br)cc3)c2c1N	inconclusive: 8.91 µM [inhibitor, partial curve, poor fit]	–
O=C(CN1CCCCC1)N/N=C/c1cccc(C(F)(F)F)c1	inconclusive: 0.355 µM [inhibitor, full curve, poor fit]	–
COc1ccc(-c2noc(CN(C(=O)Cc3ccc(C)cc3)C(C)C)n2)cc1	inconclusive: 2.82 µM [inhibitor, single point]	–
COc1ccc(CCNC(=O)c2ccc(-c3ccc([N+](=O)[O-])cc3Cl)o2)cc1OC	inconclusive: 20.6 µM [inhibitor, single point]	–
CC(NC(=O)c1ccc(Br)o1)c1ccc(-n2ccnc2)cc1 (stereo not given)	inconclusive: 5.62 µM [inhibitor, full curve, poor fit]	–
Fc1ccc(-n2cc(CNCCc3cccnc3)c(-c3ccccc3Cl)n2)cc1	inconclusive: 3.55 µM [inhibitor, partial curve, poor fit]	–
COC(=O)c1ccc(OC(=O)c2cnccn2)cc1	inconclusive: 35.5 µM [activator, single point]	–
CC(=O)c1ccc(OCC(=O)c2cc(C)n(-c3ccc4c(c3)OCO4)c2C)cc1	inconclusive: 20 µM [inhibitor, partial curve, poor fit]	–
CC(C(=O)Nc1nc2ccccc2s1)n1cc([N+](=O)[O-])cn1 (stereo not given)	–	inactive: 1.59% [at 46.1 µM]

SMILES	Potency	activity change, negative = inhibition
COc1ccc(NC(=S)NC2CC3CCC(C2)N3Cc2ccco2)cc1 (stereo not given)	inconclusive: 0.794 µM [inhibitor, full curve, poor fit]	–
O=C(Nc1ccc2oc(-c3ccccc3)nc2c1)c1ccc2c(c1)OCCO2	inconclusive: 29.1 µM [inhibitor, single point]	–
COc1cc(CN2CCCC(C(=O)c3ccc(C(C)(C)C)cc3)C2)cc(OC)c1O (stereo not given)	inconclusive: 15.8 µM [inhibitor, partial curve, poor fit]	–
CC(=O)OCCNC(=O)c1cc2ccccc2oc1=O	inconclusive: 0.316 µM [activator, partial curve, poor fit]	–
O=C(COc1ccccc1)NCC(c1ccco1)N1CCN(c2ccc(F)cc2)CC1 (stereo not given)	inconclusive: 11.2 µM [inhibitor, partial curve, poor fit]	–
Cc1ccc(Nc2ccc(S(=O)(=O)N3CCOCC3)cc2[N+](=O)[O-])cc1C	inconclusive: 0.0891 µM [activator, full curve, poor fit]	–
Cc1ccc(OCC(=O)NNC(=O)c2ccco2)c(C)c1	inconclusive: 10 µM [activator, partial curve]	–
Cc1ccnc(NC(=O)c2cc(-c3ccc(Cl)s3)nc3ccccc23)c1	inconclusive: 11.2 µM [inhibitor, partial curve]	–
COc1cc(/C=C(\NC(=O)c2cc(OC)c(OC)c(OC)c2)C(=O)NC(C(=O)O)c2ccccc2)cc(OC)c1OC (stereo not given)	–	inactive: 3.69%
c1ccc(-n2nnnc2-c2cccc3ccccc23)cc1	inconclusive: 1.12 µM [inhibitor, full curve]	–
CC1(C)Cc2c(sc(NC(=O)c3ccc(S(=O)(=O)N4CCCCCC4)cc3)c2C(N)=O)C(C)(C)N1	inconclusive: 35.5 µM [inhibitor, single point]	–
CCc1ccccc1NC(=O)c1cccc(NC(=O)/C=C/c2ccco2)c1	–	inactive: -23.9%
CCC/C(=N\NC(=O)c1csc(C)c1C)c1cccs1	inconclusive: 12.6 µM [inhibitor, single point]	–
O=C(Cn1cnc2cc([N+](=O)[O-])ccc2c1=O)NCc1ccc(Cl)cc1	–	inactive: -19.3% [at 46.1 µM]
CNC(=S)N1N=C(c2ccc(OC)cc2)CC1c1ccc(Cl)cc1Cl (stereo not given)	inconclusive: 0.562 µM [inhibitor, full curve, poor fit]	–
Cc1ccc(Cl)c(OCC(=O)NCC(c2cccs2)N2CCOCC2)c1 (stereo not given)	inconclusive: 22.4 µM [inhibitor, single point]	–
O=C(COC(=O)c1ccc(Br)cc1)NCCc1ccccc1	inconclusive: 4.11 µM [inhibitor, single point]	–
NC(=O)c1ccc(NS(=O)(=O)c2ccc3ccccc3c2)cc1	inconclusive: 0.282 µM [activator, partial curve, poor fit]	–
CCc1ccc(C(=O)CSc2nc(-c3ccccc3)nc3c2CCCC3)cc1	inconclusive: 7.94 µM [activator, partial curve]	–
Cc1cc2oc(=O)cc(CSc3nc(N)cc(N)n3)c2cc1C(C)C	–	inactive: -7.44%
N=c1c2cn[nH]c2nc(SCC(=O)c2ccc(Br)cc2)n1-c1ccc(Br)cc1	inconclusive: 1.26 µM [inhibitor, partial curve, poor fit]	–

At a glance, part of the list above:
SMILES	Potency	activity change, negative = inhibition
O=C(Cn1cnc2cc([N+](=O)[O-])ccc2c1=O)NCc1ccc(Cl)cc1	–	inactive: -19.3% [at 46.1 µM]
CNC(=S)N1N=C(c2ccc(OC)cc2)CC1c1ccc(Cl)cc1Cl (stereo not given)	inconclusive: 0.562 µM [inhibitor, full curve, poor fit]	–
Cc1ccc(Cl)c(OCC(=O)NCC(c2cccs2)N2CCOCC2)c1 (stereo not given)	inconclusive: 22.4 µM [inhibitor, single point]	–
O=C(COC(=O)c1ccc(Br)cc1)NCCc1ccccc1	inconclusive: 4.11 µM [inhibitor, single point]	–
NC(=O)c1ccc(NS(=O)(=O)c2ccc3ccccc3c2)cc1	inconclusive: 0.282 µM [activator, partial curve, poor fit]	–
